Values from PubChem BioAssay AID504786 (Drosophila RNAi Screening Center, 2011)
Screen: 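Fly genes required for HIF-dependent transcription when hypoxia is mimicked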 (primary screen). Cells: Drosophila S2 cells with a stable HIF luciferase reporter. Reagent: long dsRNA against Drosophila genes, about 0.2 µg dsRNA per well of a 384-well plate. Time to read-out: three days of knock-down, then 20 h of DFO before reading. Challenge: desferrioxamine (DFO) at 100 µM, an iron chelator that mimics hypoxia, for 20 h. Measured: 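Firefly luciferase driven by the mouse ldh-a hypoxia-response element, measured after 20 h of 100 µM DFO; z-scores per plate, higher means more signal lost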. Scale: z-score: higher = stronger loss of HIF reporter signal.
The screen tested about 21,000 reagents; shown is an unselected part of those that have a named target and a result. 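Primary screen; positive scores mean lost reporter signal, so the sign may be inverted from the usual convention.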 Names joined by + are all predicted targets of the reagent.

| Target gene | DRSC id | z-score, replicate 1 | z-score, replicate 2 | z-score, replicate 3 | z-score, replicate 4 |
| --- | --- | --- | --- | --- | --- |
| comt | DRSC20319 | -0.4 | -0.3 | – | – |
| CG6928 | DRSC10749 | 0 | -0.6 | – | – |
| wat | DRSC14854 | -0.3 | -0.5 | – | – |
| EMC2B + EMC2A | DRSC15241 | -0.1 | -0.2 | – | – |
| CG4955 | DRSC19927 | -0.2 | -1 | – | – |
| CG32264 | DRSC08061 | 1.2 | -0.5 | – | – |
| CG32264 | DRSC08167 | 0.4 | 0.1 | – | – |
| CG32264 | DRSC08169 | -0.4 | -0.2 | – | – |
| CG32264 | DRSC08285 | -0.2 | -0.7 | 1.3 | -0.2 |
| CG32264 | DRSC08437 | 1 | -0.6 | – | – |
| CG11068 | DRSC19369 | -0.3 | -0.6 | – | – |
| CG30046 | DRSC06691 | -0.1 | -0.2 | – | – |
| Poxn | DRSC05589 | -0.2 | -0.2 | – | – |
| Poxn | DRSC07512 | -0.2 | 0.3 | – | – |
| Wdr62 | DRSC00081 | 0.1 | -0.1 | – | – |
| Wdr62 | DRSC00082 | 0.1 | 0 | – | – |
| Wdr62 | DRSC00701 | -0.3 | -0.7 | – | – |
| cpb | DRSC00809 | 0.2 | 0.1 | – | – |
| CG12496 | DRSC18602 | -0.4 | 0.1 | – | – |
| Catsup | DRSC03288 | -0.2 | -0.3 | – | – |
| CG7497 | DRSC10857 | -0.2 | -0.2 | – | – |
| CG10602 | DRSC02075 | -0.1 | -0.4 | – | – |
| Ass + CG31286 | DRSC12493 | -0.4 | -0.7 | – | – |
| CG11106 | DRSC19381 | -0.1 | -0.5 | – | – |
| CG14856 | DRSC14980 | -0.2 | -0.3 | – | – |
| Hsp67Ba | DRSC11191 | 1 | 1.7 | – | – |
| Ir51b | DRSC05540 | 0 | -0.3 | – | – |
| Obp56a | DRSC06085 | -0.3 | -0.3 | – | – |
| CG6000 | DRSC15938 | -0.2 | -0.3 | – | – |
| seq | DRSC06863 | -0.5 | -0.6 | – | – |
| Menl-2 + Menl-1 | DRSC07469 | -0.3 | -0.7 | – | – |
| Menl-2 + Menl-1 | DRSC07470 | 0.2 | 0.1 | – | – |
| CG4374 | DRSC15570 | -0.5 | -0.5 | – | – |
| CG9312 | DRSC16471 | -0.3 | -0.2 | – | – |

Individual results from above:
Under “z-score, replicate 2”, Hsp67Ba [DRSC11191] is entered as 1.7
EMC2B + EMC2A [DRSC15241], z-score, replicate 2 → -0.2
